The list shows a part of the results.
Legend:
Test in all cases: log2 fold change, soluble protein after heating vs DMSO (PISA); higher = thermal stabilisation; K562 lysate, 10 uM; active = over 0.2 and 3.5 SD of the protein, either way, in both replicates (recomputed)
[1] = compound: CN1CC[C@H](c2c(O)cc(O)c3c(=O)cc(-c4ccccc4Cl)oc23)[C@H](O)C1 [alvocidib]
Outline: (§1)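 The values are log-two fold changes in thermal stability compared with solvent controls and come from duplicates. They were obtained by TMTpro 16plex LC-MS/MS, with channel sums equalised, on the supernatant after 21,000xg for 90 min. That supernatant came from crude K562 extract at 1 mg/mL protein treated with 10 μM compound for 30 min, heated for 3 min across 48°C-58°C, pooled and brought to 0.5% NP-40 at 4°C.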

The chains behind the UniProt entries cited, without tags or fusion partners. Where a name states a change or a piece, a line headed by the entry shows the natural chain unless it says otherwise.
UniProt Q9NNX1: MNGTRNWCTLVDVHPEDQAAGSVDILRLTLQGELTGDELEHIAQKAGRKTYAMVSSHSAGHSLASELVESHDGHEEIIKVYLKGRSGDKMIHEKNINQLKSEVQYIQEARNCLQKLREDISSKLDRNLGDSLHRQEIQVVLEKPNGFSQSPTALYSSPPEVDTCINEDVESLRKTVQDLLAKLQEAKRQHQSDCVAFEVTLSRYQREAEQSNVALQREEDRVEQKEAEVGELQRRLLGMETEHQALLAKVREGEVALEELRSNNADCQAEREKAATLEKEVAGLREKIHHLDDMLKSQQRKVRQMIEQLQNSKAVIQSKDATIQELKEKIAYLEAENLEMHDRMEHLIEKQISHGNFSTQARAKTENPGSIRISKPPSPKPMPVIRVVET
UniProt Q86VQ3: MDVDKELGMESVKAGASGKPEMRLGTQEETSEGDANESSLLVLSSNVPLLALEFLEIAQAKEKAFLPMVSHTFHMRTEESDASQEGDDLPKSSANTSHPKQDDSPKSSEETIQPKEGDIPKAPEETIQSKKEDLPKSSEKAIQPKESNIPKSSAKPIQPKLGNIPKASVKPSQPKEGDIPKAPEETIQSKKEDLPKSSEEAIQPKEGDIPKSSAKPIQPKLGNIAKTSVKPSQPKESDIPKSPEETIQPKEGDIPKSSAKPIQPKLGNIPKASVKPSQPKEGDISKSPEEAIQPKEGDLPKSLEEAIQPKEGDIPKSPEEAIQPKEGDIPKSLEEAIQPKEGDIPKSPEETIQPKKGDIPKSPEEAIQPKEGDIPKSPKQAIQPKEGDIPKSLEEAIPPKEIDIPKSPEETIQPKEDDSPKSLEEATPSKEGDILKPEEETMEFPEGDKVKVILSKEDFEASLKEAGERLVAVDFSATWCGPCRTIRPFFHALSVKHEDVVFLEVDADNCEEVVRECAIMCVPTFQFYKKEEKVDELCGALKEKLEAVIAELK
UniProt A6NHL2: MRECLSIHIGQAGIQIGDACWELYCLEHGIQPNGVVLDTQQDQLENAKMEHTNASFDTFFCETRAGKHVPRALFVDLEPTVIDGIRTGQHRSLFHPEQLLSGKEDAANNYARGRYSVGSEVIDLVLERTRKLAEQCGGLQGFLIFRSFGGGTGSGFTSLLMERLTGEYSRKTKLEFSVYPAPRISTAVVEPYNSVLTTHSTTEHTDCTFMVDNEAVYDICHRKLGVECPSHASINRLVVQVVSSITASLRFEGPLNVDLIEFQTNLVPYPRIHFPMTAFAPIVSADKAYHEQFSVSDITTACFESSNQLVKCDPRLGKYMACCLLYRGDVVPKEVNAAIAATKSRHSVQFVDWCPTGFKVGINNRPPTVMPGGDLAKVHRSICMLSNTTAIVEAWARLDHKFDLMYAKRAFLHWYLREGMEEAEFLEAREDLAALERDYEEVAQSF
UniProt O94941: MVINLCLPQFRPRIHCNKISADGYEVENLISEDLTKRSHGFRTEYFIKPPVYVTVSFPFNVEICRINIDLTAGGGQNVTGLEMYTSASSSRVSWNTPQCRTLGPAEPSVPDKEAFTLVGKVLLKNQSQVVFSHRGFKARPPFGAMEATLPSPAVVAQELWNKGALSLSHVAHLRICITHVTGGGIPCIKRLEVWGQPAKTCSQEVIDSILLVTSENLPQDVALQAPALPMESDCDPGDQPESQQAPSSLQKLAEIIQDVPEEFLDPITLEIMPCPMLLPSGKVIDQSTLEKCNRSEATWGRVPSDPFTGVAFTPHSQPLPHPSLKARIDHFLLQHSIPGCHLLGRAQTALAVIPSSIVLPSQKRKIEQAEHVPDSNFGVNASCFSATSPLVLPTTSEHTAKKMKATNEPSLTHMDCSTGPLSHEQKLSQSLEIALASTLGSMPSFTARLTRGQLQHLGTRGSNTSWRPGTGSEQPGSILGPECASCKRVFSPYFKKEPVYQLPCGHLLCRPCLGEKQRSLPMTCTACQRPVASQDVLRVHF
UniProt Q96RT8, whole entry, looked up: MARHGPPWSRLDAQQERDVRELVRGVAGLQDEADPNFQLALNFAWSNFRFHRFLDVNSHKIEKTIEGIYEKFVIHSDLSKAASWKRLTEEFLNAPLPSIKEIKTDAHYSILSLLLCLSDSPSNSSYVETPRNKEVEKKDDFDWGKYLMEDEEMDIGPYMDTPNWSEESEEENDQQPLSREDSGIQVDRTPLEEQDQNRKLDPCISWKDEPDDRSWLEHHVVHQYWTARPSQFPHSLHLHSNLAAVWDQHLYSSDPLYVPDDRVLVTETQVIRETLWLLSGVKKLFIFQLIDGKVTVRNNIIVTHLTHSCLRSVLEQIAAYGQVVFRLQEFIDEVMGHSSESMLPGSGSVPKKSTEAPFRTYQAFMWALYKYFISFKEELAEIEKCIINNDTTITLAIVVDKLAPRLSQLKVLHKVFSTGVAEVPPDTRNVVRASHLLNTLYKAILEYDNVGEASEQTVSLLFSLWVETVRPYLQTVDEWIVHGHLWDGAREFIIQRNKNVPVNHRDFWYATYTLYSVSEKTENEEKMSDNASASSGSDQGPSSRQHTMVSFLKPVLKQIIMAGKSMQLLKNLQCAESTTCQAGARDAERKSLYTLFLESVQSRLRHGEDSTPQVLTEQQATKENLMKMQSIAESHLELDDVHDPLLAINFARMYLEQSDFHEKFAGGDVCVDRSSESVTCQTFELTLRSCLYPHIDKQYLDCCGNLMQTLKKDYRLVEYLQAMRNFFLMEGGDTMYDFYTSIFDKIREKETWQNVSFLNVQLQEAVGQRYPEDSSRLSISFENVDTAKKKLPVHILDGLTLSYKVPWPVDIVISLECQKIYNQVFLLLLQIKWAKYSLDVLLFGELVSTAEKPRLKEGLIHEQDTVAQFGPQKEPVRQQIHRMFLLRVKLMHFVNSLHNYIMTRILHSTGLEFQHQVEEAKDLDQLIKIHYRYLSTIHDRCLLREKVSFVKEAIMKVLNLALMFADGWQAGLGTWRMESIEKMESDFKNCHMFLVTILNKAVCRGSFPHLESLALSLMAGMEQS
UniProt P04350, whole entry, looked up: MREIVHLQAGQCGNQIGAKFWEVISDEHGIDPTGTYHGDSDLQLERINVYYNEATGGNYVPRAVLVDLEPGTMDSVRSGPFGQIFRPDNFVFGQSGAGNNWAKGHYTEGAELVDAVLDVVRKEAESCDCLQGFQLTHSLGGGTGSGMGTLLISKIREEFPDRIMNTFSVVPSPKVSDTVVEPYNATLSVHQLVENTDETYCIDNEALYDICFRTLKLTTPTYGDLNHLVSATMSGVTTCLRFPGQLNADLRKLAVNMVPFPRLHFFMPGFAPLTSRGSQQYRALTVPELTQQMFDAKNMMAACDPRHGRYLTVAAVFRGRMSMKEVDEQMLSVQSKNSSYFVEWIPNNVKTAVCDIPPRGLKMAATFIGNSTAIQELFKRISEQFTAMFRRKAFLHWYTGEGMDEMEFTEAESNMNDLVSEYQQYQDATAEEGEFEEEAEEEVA
UniProt A6NNZ2, whole entry, looked up: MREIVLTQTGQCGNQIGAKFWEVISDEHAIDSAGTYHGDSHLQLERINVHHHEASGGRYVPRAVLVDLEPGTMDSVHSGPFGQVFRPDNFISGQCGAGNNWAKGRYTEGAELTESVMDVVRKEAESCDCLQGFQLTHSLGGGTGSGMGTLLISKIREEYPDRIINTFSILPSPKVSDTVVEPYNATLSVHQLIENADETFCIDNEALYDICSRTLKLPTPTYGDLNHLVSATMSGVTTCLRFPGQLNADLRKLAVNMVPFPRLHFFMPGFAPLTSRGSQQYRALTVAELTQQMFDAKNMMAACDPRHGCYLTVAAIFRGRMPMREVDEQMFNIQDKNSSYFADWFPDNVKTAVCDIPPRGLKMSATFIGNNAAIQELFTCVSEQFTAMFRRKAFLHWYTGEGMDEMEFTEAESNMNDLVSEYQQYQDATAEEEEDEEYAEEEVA
UniProt Q9BZL1: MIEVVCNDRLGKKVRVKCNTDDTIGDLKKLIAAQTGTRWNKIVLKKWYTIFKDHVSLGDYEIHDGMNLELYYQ
UniProt P68543: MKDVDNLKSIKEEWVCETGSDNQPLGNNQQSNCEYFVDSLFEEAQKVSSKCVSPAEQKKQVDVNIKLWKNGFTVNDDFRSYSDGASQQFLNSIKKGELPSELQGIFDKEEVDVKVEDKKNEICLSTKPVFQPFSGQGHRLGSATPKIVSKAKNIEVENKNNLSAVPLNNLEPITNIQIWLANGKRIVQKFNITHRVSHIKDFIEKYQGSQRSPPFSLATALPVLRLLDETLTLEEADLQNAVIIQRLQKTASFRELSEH
UniProt Q8NBM4: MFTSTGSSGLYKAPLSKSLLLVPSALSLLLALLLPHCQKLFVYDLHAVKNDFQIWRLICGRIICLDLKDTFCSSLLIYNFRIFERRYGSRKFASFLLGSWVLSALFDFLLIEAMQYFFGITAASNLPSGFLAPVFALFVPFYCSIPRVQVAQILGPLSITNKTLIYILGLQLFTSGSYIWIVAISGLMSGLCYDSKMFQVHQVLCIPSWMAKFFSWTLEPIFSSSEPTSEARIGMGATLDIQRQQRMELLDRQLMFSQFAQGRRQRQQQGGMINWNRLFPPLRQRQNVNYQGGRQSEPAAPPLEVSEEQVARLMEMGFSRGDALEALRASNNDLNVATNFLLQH
UniProt Q8N2K1: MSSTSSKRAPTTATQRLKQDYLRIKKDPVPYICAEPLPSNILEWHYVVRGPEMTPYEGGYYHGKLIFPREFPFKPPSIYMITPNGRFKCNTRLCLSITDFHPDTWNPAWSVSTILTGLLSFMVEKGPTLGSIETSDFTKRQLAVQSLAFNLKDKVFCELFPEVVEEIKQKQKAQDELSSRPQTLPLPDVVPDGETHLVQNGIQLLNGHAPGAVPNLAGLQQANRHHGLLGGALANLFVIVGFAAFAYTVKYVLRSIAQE
UniProt O75896: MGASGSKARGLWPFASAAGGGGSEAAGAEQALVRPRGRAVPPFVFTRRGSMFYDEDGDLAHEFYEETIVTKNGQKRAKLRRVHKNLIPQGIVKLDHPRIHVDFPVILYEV
UniProt Q96LJ8: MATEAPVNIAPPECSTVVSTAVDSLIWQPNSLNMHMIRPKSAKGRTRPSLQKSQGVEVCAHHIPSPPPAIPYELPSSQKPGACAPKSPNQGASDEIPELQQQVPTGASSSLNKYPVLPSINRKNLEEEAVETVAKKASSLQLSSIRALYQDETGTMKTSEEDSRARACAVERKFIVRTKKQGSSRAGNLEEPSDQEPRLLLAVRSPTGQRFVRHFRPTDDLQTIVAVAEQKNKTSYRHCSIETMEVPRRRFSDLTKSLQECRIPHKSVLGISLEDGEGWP
UniProt Q6PKC3: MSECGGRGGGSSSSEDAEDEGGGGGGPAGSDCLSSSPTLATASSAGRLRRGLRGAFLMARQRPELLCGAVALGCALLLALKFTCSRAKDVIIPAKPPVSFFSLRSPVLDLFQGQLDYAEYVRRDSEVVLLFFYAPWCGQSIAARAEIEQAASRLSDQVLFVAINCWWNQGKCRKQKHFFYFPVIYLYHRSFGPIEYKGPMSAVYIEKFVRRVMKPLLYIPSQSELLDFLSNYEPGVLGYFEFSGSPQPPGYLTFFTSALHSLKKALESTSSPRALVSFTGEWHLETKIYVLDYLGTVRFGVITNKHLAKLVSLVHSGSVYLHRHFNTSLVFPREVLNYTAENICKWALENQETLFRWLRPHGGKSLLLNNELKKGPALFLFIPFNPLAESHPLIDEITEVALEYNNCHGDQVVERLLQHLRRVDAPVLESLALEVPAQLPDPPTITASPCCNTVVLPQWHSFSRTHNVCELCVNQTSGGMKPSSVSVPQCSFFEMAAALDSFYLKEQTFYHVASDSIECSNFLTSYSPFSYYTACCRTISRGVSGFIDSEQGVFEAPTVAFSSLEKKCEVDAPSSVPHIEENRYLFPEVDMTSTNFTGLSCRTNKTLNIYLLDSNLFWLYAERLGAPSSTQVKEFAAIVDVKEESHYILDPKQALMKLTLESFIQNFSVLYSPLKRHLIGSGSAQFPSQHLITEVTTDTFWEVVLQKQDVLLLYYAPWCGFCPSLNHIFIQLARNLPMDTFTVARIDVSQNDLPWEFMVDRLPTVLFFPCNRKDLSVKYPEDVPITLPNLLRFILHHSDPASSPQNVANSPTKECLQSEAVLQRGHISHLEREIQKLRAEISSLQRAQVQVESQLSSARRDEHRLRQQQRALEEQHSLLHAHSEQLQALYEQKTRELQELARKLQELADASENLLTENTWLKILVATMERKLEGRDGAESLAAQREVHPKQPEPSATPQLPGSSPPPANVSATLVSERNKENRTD
UniProt Q01081: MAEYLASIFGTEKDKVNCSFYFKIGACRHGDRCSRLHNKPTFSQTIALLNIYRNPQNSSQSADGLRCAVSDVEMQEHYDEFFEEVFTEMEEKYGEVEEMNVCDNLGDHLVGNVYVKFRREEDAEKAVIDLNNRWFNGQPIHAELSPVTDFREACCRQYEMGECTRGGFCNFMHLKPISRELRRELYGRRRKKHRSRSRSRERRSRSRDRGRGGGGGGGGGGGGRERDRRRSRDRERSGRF

[2] = compound: CN1CCc2c(c3ccccc3n2Cc2ccc(C(=O)NO)cc2)C1 [Tubastatin A]
Outline: as §1

[3] = compound: CNC(=O)C1=CC=CC=C1NC2=NC(=NC=C2Cl)NC3=C(C=C(C=C3)N4CCOCC4)OC
Outline: as §1

[4] = compound: COC(=O)N[C@@H](C)CNc1nccc(-c2cn(C(C)C)nc2-c2cc(Cl)cc(NS(C)(=O)=O)c2F)n1 [encorafenib]
Outline: as §1

[5] = compound: COC(=O)[C@H](CCSC)NC(=O)C1=C(C=C(C=C1)NC[C@H](CS)N)C2=CC=CC=C2
Outline: as §1

[6] = compound: COc1cc(Nc2ncc3c(n2)-c2ccc(Cl)cc2C(c2c(F)cccc2OC)=NC3)ccc1C(=O)O [alisertib]
Outline: as §1

[7] = compound: COc1cc2ncnc(Nc3ccc(F)c(Cl)c3)c2cc1OCCCN1CCOCC1 [gefitinib]
Outline: as §1

[8] = compound: CS(=O)(=O)N1CCN(Cc2cc3nc(-c4cccc5[nH]ncc45)nc(N4CCOCC4)c3s2)CC1 [pictilisib]
Outline: as §1

[9] = compound: C[C@H](C1=CC=C(C=C1)C(=O)NC2=C3C=CNC3=NC=C2)N
Outline: as §1

[10] = compound: Cc1cc(Nc2cc(CN3CCOCC3)c3nc(C)c(Cc4ccc(Cl)cc4F)n3n2)n[nH]1 [gandotinib]
Outline: as §1

[11] = compound: Cc1cc(Nc2cc(N3CCN(C)CC3)nc(Sc3ccc(NC(=O)C4CC4)cc3)n2)n[nH]1 [tozasertib]
Outline: as §1

[12] = compound: Cc1ccc(NC(=O)c2ccc(CN3CC[C@H](N(C)C)C3)c(C(F)(F)F)c2)cc1Nc1nccc(-c2cncnc2)n1 [bafetinib]
Outline: as §1

[13] = compound: Cc1cccc(CC(=O)N2CCc3c2ccc(-c2cn(C)c4ncnc(N)c24)c3F)n1
Outline: as §1

[14] = compound: CNC(=O)c1ccc(Nc2ncc(C(F)(F)F)c(NCc3nccnc3N(C)S(C)(=O)=O)n2)cc1 [defactinib]
Outline: as §1

[15] = compound: CNc1nc(-c2ccc3c(N)n[nH]c3c2)cc(N2C[C@@H](C(=O)NC3CCCCC3)CC[C@H]2C)n1
Outline: as §1

[16] = compound: C[C@@H](Oc1cc(-c2cnn(C3CCNCC3)c2)cnc1N)c1c(Cl)ccc(F)c1Cl [crizotinib]
Outline: as §1

[17] = compound: C[C@H](Nc1ncnc2nc[nH]c12)c1cc2cccc(Cl)c2c(=O)n1-c1ccccc1 [duvelisib]
Outline: as §1

[18] = compound: Cc1ccc(-n2nc(C(C)(C)C)cc2NC(=O)Nc2ccc(OCCN3CCOCC3)c3ccccc23)cc1 [doramapimod]
Outline: as §1

[19] = compound: COc1cc2nc(-c3cc(F)ccc3O)nc(N[C@@H]3CNC[C@H]3C(C)(C)O)c2cc1OC
Outline: as §1

[20] = compound: CS(=O)(=O)CCNCc1ccc(-c2ccc3ncnc(Nc4ccc(OCc5cccc(F)c5)c(Cl)c4)c3c2)o1 [lapatinib]
Outline: as §1

Measured: log2 fold change

TUFT1 (UniProt Q9NNX1)
inactive: [1] -0.082 | [2] -0.024 | [3] -0.001 | [4] 0 | [5] 0.075 | [6] -0.067 | [7] 0.181 | [8] 0.092 | [9] -0.084 | [10] 0.061 | [11] -0.087 | [12] -0.008 | [13] 0.086

TXNIP (UniProt Q9H3M7)
inactive: [1] 0.017 | [2] -0.021 | [3] 0.037 | [14] 0.042 | [15] 0.046 | [4] 0.011 | [5] 0.067 | [6] -0.015 | [7] -0.004 | [8] 0.029 | [16] -0.045 | [9] 0.143 | [17] 0 | [10] -0.089 | [11] -0.015 | [18] 0.019 | [12] -0.042 | [13] -0.037

TXNDC2 (UniProt Q86VQ3)
inactive: [1] -0.003 | [2] 0.084 | [3] 0.055 | [6] 0.173 | [19] 0.025 | [7] -0.092 | [20] -0.009 | [8] 0.045 | [16] -0.028 | [9] 0.083 | [10] 0.1 | [18] -0.071 | [12] 0.066 | [13] -0.149

TUBAL3 (UniProt A6NHL2)
inactive: [1] -0.276 | [2] 0.109 | [3] -0.179 | [14] -0.093 | [15] 0.039 | [4] 0.03 | [5] 0.032 | [6] 0.135 | [19] 0.088 | [7] -0.057 | [20] -0.07 | [8] -0.034 | [9] -0.434 | [17] -0.001 | [10] 0.312 | [11] 0.09 | [12] -0.232
active: [13] 0.567

UBOX5 (UniProt O94941)
inactive: [1] 0.044 | [2] -0.021 | [3] 0.031 | [15] -0.116 | [6] -0.064 | [7] -0.077 | [9] -0.124 | [17] -0.097 | [10] 0.035 | [13] -0.086

TUBGCP5 (UniProt Q96RT8)
inactive: [1] -0.069 | [2] -0.128 | [14] -0.159 | [15] -0.055 | [4] 0.179 | [5] 0.145 | [6] -0.023 | [19] 0.025 | [7] -0.007 | [20] 0.11 | [8] 0.037 | [16] -0.064 | [9] -0.044 | [17] 0.103 | [10] -0.009 | [11] 0.113 | [18] 0.044 | [12] -0.121 | [13] 0.101

TUBB4A (UniProt P04350)
inactive: [1] -0.006 | [2] -0.113 | [3] -0.029 | [15] 0.051 | [4] -0.027 | [5] 0.112 | [6] 0.021 | [19] -0.002 | [7] 0.101 | [20] -0.095 | [8] -0.055 | [16] -0.001 | [9] -0.081 | [17] 0.059 | [10] 0.051 | [11] -0.138 | [18] -0.025 | [12] -0.026 | [13] -0.01

TUBB8B (UniProt A6NNZ2)
inactive: [1] -0.026 | [2] -0.171 | [14] -0.02 | [15] 0.003 | [4] 0.039 | [5] 0.135 | [6] 0.097 | [19] 0.002 | [7] -0.127 | [20] 0.02 | [8] 0.16 | [9] 0.006 | [17] 0.012 | [10] 0.04 | [11] 0.032 | [12] 0.031 | [13] 0.01

UBL5 (UniProt Q9BZL1)
inactive: [1] -0.117 | [2] 0.023 | [3] -0.048 | [14] 0.041 | [15] -0.045 | [4] -0.012 | [5] -0.06 | [6] 0.039 | [7] -0.141 | [8] -0.036 | [16] 0.072 | [9] -0.194 | [17] -0.042 | [10] 0.042 | [11] 0.138 | [18] 0.013 | [12] -0.034 | [13] 0.104

2 entries drawn at random from those above:
TUBB4A (UniProt P04350)
inactive: [1] -0.006 | [2] -0.113 | [3] -0.029 | [15] 0.051 | [4] -0.027 | [5] 0.112 | [6] 0.021 | [19] -0.002 | [7] 0.101 | [20] -0.095 | [8] -0.055 | [16] -0.001 | [9] -0.081 | [17] 0.059 | [10] 0.051 | [11] -0.138 | [18] -0.025 | [12] -0.026 | [13] -0.01

UBOX5 (UniProt O94941)
inactive: [1] 0.044 | [2] -0.021 | [3] 0.031 | [15] -0.116 | [6] -0.064 | [7] -0.077 | [9] -0.124 | [17] -0.097 | [10] 0.035 | [13] -0.086

(continued)

U2AF1L5 (UniProt P0DN76)
active: [9] -0.904
inactive: [1] -0.58 | [2] -0.193 | [3] -0.044 | [15] -0.023 | [4] -0.101 | [5] 0.096 | [6] -0.045 | [19] -0.013 | [7] -0.061 | [20] 0.091 | [17] 0.021 | [10] 0.114 | [11] 0.207 | [13] 0.342

UBIAD1 (UniProt Q9Y5Z9)
inactive: [1] -0.016 | [2] 0.025 | [3] 0.008 | [14] 0.031 | [15] 0.157 | [4] 0.067 | [5] -0.102 | [6] 0.112 | [19] -0.061 | [7] -0.048 | [20] 0.031 | [16] -0.048 | [9] 0.036 | [17] -0.054 | [10] 0 | [11] -0.024 | [18] -0.014 | [13] 0.016

UBXN2A (UniProt P68543)
inactive: [1] 0.083 | [2] -0.107 | [3] -0.032 | [14] 0.019 | [15] 0.095 | [19] 0 | [20] -0.021 | [8] 0.139 | [16] -0.085 | [9] -0.059 | [17] 0.035 | [10] 0.097 | [18] 0.096 | [12] -0.009 | [13] -0.013

UBAC2 (UniProt Q8NBM4)
inactive: [1] -0.081 | [2] 0.046 | [3] 0.037 | [14] 0.04 | [15] -0.116 | [4] 0.112 | [5] -0.061 | [19] 0.226 | [20] 0.103 | [8] 0.076 | [16] 0.038 | [9] -0.078 | [17] 0.001 | [10] -0.323 | [11] 0.086 | [18] 0.066 | [12] -0.004 | [13] 0.005

UBE2J2 (UniProt Q8N2K1)
inactive: [1] 0.177 | [2] -0.119 | [3] -0.055 | [14] -0.076 | [15] 0.157 | [4] 0.083 | [5] -0.181 | [6] 0.087 | [7] -0.072 | [8] -0.017 | [16] -0.096 | [9] -0.033 | [17] -0.064 | [10] -0.334 | [11] 0.015 | [18] 0.015 | [12] 0.103 | [13] -0.006

TUSC2 (UniProt O75896)
inactive: [1] -0.089 | [2] 0.049 | [3] 0.008 | [15] -0.073 | [4] -0.148 | [5] -0.008 | [6] -0.033 | [19] 0.133 | [7] 0.03 | [20] -0.098 | [8] -0.043 | [9] -0.014 | [17] 0.092 | [10] 0.114 | [11] 0.103 | [12] 0.096 | [13] 0.008

UBXN10 (UniProt Q96LJ8)
inactive: [1] -0.036 | [2] -0.02 | [3] 0.051 | [14] 0.026 | [15] 0.019 | [4] 0.045 | [5] -0.116 | [19] -0.006 | [20] -0.041 | [8] 0.006 | [16] 0.02 | [9] -0.001 | [17] 0.035 | [10] 0.06 | [11] 0.006 | [18] -0.003 | [12] -0.081 | [13] -0.065

TXNDC11 (UniProt Q6PKC3)
inactive: [1] -0.057 | [2] -0.036 | [3] 0.052 | [15] -0.06 | [4] 0.071 | [5] 0.042 | [6] -0.089 | [19] 0.049 | [7] -0.061 | [20] -0.044 | [8] 0.057 | [16] 0.052 | [9] -0.042 | [17] -0.007 | [10] -0.025 | [11] 0.023 | [18] -0.016 | [12] -0.057 | [13] 0.063

U2AF1 isoform 2 (UniProt Q01081)
inactive: [1] -0.055 | [2] -0.083 | [3] -0.007 | [14] -0.038 | [15] 0.003 | [4] 0.021 | [5] -0.028 | [6] 0.025 | [19] -0.011 | [7] -0.076 | [20] 0.019 | [8] 0.003 | [16] -0.063 | [9] -0.096 | [17] 0.043 | [10] -0.034 | [11] -0.013 | [18] 0.099 | [12] 0.006 | [13] 0.136
